Measured data: PubChem BioAssay AID1159578 (Peter MacCallum Cancer Centre, 2015)
Purpose: 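Genome-wide hunt for genes controlling movement of lymphatic endothelial cells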 (primary screen). Cell system: human lymphatic endothelial cells. Knock-down reagent: siRNA pool against human genes, 40 nM. Timing: 48 h after transfection. Measured: 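Cells stained with dye and imaged after a scratch; covered wound area and nuclei counted, duplicates averaged, migration set against mock wells and turned into a robust z-score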. Scale: migration robust z-score: higher = faster migration into the scratch; nuclei per well: higher = more cells in the well. Active means: 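Pools averaging fewer than 3300 nuclei are never called; remaining pools count as changed when migration robust z lies outside -2 to 2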. Meaning of the calls: active = migration changed; inactive = no migration change, or too few cells.
Shown is an unselected part of about 18,000 reagents. In the full data, about 1,030 (5.7%) are marked active. 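Inactive calls also include pools with fewer than 3300 nuclei, whose migration was not assessed.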 Raw values are not corrected between plates. A number with no mark means an inactive call. Further read-outs or replicates are left out here.

gene | migration robust z-score | nuclei per well, duplicate mean
SLC52A2 | -1.12 | 6103
KCTD5 | -0.08 | 5386
SIGLECL1 | 0.5 | 5696
INSR | -0.36 | 5986
AMD1 | -0.05 | 5806
LYRM7 | -0.55 | 4282
PPRC1 | 1.11 | 5095
ABCA3 | -0.16 | 6287
NTRK1 | 0.52 | 5710
NLGN3 | 0.57 | 4713
CCL1 | 0.06 | 5874
ZNF285 | 1.31 | 5280
SIM1 | -0.52 | 5158
PTGS1 | -0.94 | 5362
CYP4X1 | -1.22 | 3972
SPINK1 | 0.05 | 4506
CLEC5A | 0.34 | 6048
SPRY3 | 0 | 4939
MAP3K4 | -0.68 | 5792
EIF3D | 0.96 | 6043
RDH14 | -1.79 | 4193
TRIO | 0.94 | 5309
CDH24 | 1.36 | 6110
PDE4DIP | 0.44 | 6376
NUTF2 | 1.06 | 5218
ZNF750 | 2.63 (active) | 7978
DYRK3 | -1.06 | 3795

Continued, starting with the last 2 of the part before.
gene | migration robust z-score | nuclei per well, duplicate mean
ZNF750 | 2.63 (active) | 7978
DYRK3 | -1.06 | 3795
ID1 | -0.88 | 5556
OPRK1 | 0.46 | 5357
PPFIA3 | -0.05 | 4532
C11orf42 | 0.2 | 6064
STRADA | -2.54 | 3102
PCED1B | -0.48 | 4621
OR4A47 | -0.66 | 5894
ACACB | 1.53 | 6664
AP2S1 | -0.02 | 6082
CCDC28A | 1.3 | 5559
NCDN | 2.1 (active) | 6409
FCF1 | -0.6 | 4306
IL1R2 | 1.38 | 6350
SLC9B1 | -0.5 | 7220
OR51B6 | 0.82 | 5482
CENPL | -0.4 | 5776
CLEC4A | 0.25 | 5610
IGFL2 | 0.32 | 5606
CACNA1B | 0 | 6896
SYNJ2BP | -1.41 | 4158
FSD1 | 0.11 | 5592
RPL23AP82 | -0.4 | 5836
CHAF1B | -0.78 | 4120
NME3 | -2.75 (active) | 3388
STAM | -1.58 | 4391
IDH3G | -1.22 | 6056
TIMM17A | 0.36 | 4933
SMR3B | -2.74 | 2781
FXYD4 | 0.18 | 5553
ZNF217 | 3 (active) | 6745
PRSS16 | 0.88 | 6056
EXOC2 | 1.19 | 5869
C8orf58 | -0.14 | 5969
POLR3GL | -0.24 | 4452
STEAP3 | 0.39 | 6631
ZNF69 | -0.95 | 5204
HSPA12A | 1.15 | 6240
KHDC4 | 1.48 | 5246
AFG3L2 | -0.1 | 4764
ADH1A | 0.44 | 4961
KRTAP3-1 | -1.98 | 4410
INSL5 | 0.73 | 6476
ZDHHC6 | -0.3 | 5532
HP | -0.93 | 4738
PHTF2 | -2.25 (active) | 5290
PRH1 | -0.57 | 8072
